{
  "source": "paper PMC11117807",
  "about": "“Comparative Study of Field-Effect Transistors Based on Graphene Oxide and CVD Graphene in Highly Sensitive NT-proBNP Aptasensors”",
  "key": {"[1]": {"target": "cardiac troponin I (cTnI) (UniProt P19429)", "test": "aptamer-functionalised CVD graphene FET (GFET)", "settings": "after long-term storage, low sensitivity; 5'-NH2; 0.01x PBS with Tween (1x PBS: 2.7 mM KCl, 137 mM NaCl, 10 mM phosphate, pH 7.4); LOD in artificial saliva; surface blocked with ethanolamine and BSA; commercial protein; single-stranded DNA"}, "[2]": {"target": "cardiac troponin I (cTnI) (UniProt P19429)", "test": "aptamer-functionalised rGO-FET", "settings": "after long-term storage, low sensitivity; 5'-NH2; 0.01x PBS with Tween (1x PBS: 2.7 mM KCl, 137 mM NaCl, 10 mM phosphate, pH 7.4); LOD in artificial saliva; surface blocked with ethanolamine and BSA; commercial protein; single-stranded DNA"}},
  "note": "The exact form of at least one protein or probe is not confirmed. The comparison behind a weaker result is the experiment's own reference, which may not be listed here.",
  "data": [
    {"sequence": "GGCAGGAAGACAAACAGGTCGTAGTGGAAACTGTCCACCGTAGACCGGTTATCTAGTGGTCTGTGGTGCTGT [N20a aptamer]", "values": [
      {"measurement": "binding result", "setting": "[1]", "result": "binds more weakly"},
      {"measurement": "binding result", "setting": "[2]", "result": "binds more weakly"}
    ]}
  ]
}
